Test results: publication doi:10.1101/513960
These are yes or no findings as the source states them, for the method shown. Some results given as binding are weak or reduced against the parent protein; the word gives no strength.

Biological target: T1, Scc1 kleisin (S. cerevisiae) (UniProt Q12158)
T1 sequence: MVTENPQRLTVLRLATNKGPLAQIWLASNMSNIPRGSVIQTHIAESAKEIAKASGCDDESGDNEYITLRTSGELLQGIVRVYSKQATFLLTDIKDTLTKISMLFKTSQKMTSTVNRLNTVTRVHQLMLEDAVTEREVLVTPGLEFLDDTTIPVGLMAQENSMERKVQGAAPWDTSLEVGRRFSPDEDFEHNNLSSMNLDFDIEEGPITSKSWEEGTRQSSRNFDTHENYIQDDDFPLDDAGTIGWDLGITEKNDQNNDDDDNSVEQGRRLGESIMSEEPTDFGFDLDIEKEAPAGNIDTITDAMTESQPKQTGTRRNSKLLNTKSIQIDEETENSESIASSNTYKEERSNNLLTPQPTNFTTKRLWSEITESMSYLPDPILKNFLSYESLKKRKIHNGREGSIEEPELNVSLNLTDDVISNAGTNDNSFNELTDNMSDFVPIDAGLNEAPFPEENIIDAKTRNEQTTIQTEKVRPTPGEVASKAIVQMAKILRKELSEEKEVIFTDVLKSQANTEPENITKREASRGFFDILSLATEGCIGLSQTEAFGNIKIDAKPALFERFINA
Assay: co-purification

B1: Scc3 (protein, UniProt P40541 1-1150)
chain: MTAVRRSTRIRTKSQVIEEDYDDEQNTSAQHVESDKITAKTQHEEEEEQDTGESEESSSEDDYEDQDDDDYVDTATAKRKSRKRKPKSASNTSSKRQKKKPTSAQKSAVSHAPAYHRSKKDQDQYLEIAKDFQPTELFDILSTSEDVSIEELLREWLETYSENRDKFLQEFINLLLNCCGSVARVEDHDVHSNESSNETIGEIQLLFQRQKLHEFYLLISKENKKRKNFKMGPLYQNFAEFMTKLLEVANDLQLLYVESDEDDTQIVTGNLVLDLLTWLSSFSVCKIRCFRYISTLTLYLFQDYLTQQAVNLEKNYLAKLSKQLSLEEKKKRPNNKTLEKLESTIAETQGSKVVIDSIIDNIVKLCFVHRYKDVSDLIRSESMLHLSIWIKNYPEYFLKVTFLKYFGWLLSDNSVSVRLQVTKILPHLIIQNHNSKSTDNSAIRQVFERFKTKILEVAIRDVNLDVRIHSIQVLTEASSLGYLDDSEILIISSLMFDEEFDPFKTSSFNKRSKFLSTVAKFLARVIKEKFDEFIKTHEDLPKEVDGLEVGPVVQVGIFIKILNDSLIYHLKDCAEVDSRTKIRMLTQAAEFLSPYISTHLKTICNLLISDTESNELIQKLQNSANNNSDDEDVDDEELDITPLFPIDRNSTILYLNVFHGLCAGANNPKIQTKDSVKEIVLPLFYDLLNAASIESADILCPLLESFITFSLDDWISIGYETELKKITDKTIKAFMDSTIGNSKVDMKYDIFAKFIHHIHHFEKKELQEKFLNQIATLKIHLKKFLQEKMDPNNSRDDYKDLTCSLYELYINKLTILGRDYPIEVDEELLQLFLNNFVSRIPIMFQDFDDSTAQEINFKMLVLLATWNLEKWREIIEKVRDYENSISKDLRSVWKPIAAIIGRLNTLVISLAATNETFENINSLFYLKWSACTSLMDIIVAIKIFELKLPADATTWRYSMSEQFPFYLHDNASKVLLKIFLYLESLFAKQVDVQLERVADEDANLNDLPETGFFENIETEFLLFTVKLKGLMKLNILDERFASRVALNKEKLGPLFKKIVDDTIMENPEPNKKNIQKAKSNQTQREKAPLQPNSERETDHANTENNDPDIPMTIDLEPIEESSQNNSELAPIEEHPTVVDAIDNSDEITQD
With B1 the binding was “binds”.
